# Source: patent US20170096487A1
# What was measured:
# human HER3 (human) [1] = assay: IHC on FFPE NSCLC tissue, Ventana Benchmark XT
# human HER3 (human) [2] = assay: Western blot on lysates of HER3-transfected HEK293 cells
# human HER3 (human) [3] = assay: Western blot on lysates of fresh frozen NSCLC samples, 37 C
# human HER3 (human) [4] = assay: IHC on FFPE HER3-transfected HEK293 cells, Ventana Benchmark XT
# human HER3 (human) [5] = assay: Western blot on lysates of fresh frozen NSCLC samples with different HER3 expression levels, primary antibody at 37°C, HRP-conjugated anti-mouse Fab as secondary antibody
# human HER3 (human) [6] = assay: IHC on FFPE human colon and lung tumour tissue, Ventana Benchmark XT, 125 ng/ml
binding (human HER3 (human) [1]),binding (human HER3 (human) [2]),binding (human HER3 (human) [3]),binding (human HER3 (human) [4]),binding (human HER3 (human) [5]),binding (human HER3 (human) [6]),Binder
binds,binds,binds,binds,binds,,"MAK<humanHER3> M-7.2.42 (antibody, V domains shown) VH: EVQLLQSGPELVKPGASVKMSCKASGYTFTDYNLHWVKQSHGRTLEWIGYFNPYNGGTFYTQKFKDKATLTINKSSSTAYMELRSLTSEDSAVYYCTRRYFDGSSYFDYWGQGTTLTVSS VL: DVLMTQTPLSLPVSLGDQASISCRSSQTIVHSNGNTYLEWYVQKPGQSLKLLIYKVSNRFSGVPDRFSGSGSGTDFTLKISRVEAEDLGVYYCFQGSHVPRAFGGGTKLEIKR"
,binds,,binds,,binds,"MAK<humanHER3> M-7.3.8 (antibody, V domains shown) VH: EVQLQQSGPELAKPGASVKMSCKASGYTFTDYNLHWVKQSHGKTLEWIGYFNTYNGGIFYTQKFKDKATLTINKSSSTAYMELRSLTSEDSAVYYCTRRYFDGSSYFDYWGRGTTLTVSS VL: DVLMTQIPLSLPVSLGDQASISCRSSQSIVHSNGNTYLEWYVQKPGQSPKLLIYKVSNRFSGVPDRFSGSGSGTDFTLKISRVEAEDLGVYYCFQGSHAPRTFGGGTKLEIKR"

# No constants are given. Whether binding was seen depends on the method and setting. Binding can be weak; no strength is given.
